Article PMC12221005
Where two headings read alike, the source gives them in different places. No constants are given. Whether binding was seen depends on the method and setting. Binding seen in cells or lysates may run through a third protein. Some results given as binding are weak or reduced against the parent protein; the word gives no strength.

Amino acid sequences for entries named in this document (tags omitted).
UniProt Q14145: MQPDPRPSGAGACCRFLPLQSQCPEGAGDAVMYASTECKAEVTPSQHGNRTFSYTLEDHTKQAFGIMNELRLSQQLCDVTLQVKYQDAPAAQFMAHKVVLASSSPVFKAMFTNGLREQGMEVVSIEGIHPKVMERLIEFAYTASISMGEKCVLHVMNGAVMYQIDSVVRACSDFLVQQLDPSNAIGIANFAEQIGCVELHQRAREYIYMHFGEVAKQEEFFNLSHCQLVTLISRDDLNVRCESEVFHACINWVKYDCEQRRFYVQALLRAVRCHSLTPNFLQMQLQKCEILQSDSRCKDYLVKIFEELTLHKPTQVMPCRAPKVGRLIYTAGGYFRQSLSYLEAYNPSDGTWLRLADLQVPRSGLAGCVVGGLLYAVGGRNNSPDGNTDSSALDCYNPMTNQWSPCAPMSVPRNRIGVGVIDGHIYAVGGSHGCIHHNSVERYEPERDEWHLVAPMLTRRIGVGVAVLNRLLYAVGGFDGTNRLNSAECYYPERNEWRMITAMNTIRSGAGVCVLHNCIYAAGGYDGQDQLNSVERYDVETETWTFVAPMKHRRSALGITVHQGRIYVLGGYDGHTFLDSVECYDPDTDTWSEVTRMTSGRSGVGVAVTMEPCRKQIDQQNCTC
UniProt Q16665: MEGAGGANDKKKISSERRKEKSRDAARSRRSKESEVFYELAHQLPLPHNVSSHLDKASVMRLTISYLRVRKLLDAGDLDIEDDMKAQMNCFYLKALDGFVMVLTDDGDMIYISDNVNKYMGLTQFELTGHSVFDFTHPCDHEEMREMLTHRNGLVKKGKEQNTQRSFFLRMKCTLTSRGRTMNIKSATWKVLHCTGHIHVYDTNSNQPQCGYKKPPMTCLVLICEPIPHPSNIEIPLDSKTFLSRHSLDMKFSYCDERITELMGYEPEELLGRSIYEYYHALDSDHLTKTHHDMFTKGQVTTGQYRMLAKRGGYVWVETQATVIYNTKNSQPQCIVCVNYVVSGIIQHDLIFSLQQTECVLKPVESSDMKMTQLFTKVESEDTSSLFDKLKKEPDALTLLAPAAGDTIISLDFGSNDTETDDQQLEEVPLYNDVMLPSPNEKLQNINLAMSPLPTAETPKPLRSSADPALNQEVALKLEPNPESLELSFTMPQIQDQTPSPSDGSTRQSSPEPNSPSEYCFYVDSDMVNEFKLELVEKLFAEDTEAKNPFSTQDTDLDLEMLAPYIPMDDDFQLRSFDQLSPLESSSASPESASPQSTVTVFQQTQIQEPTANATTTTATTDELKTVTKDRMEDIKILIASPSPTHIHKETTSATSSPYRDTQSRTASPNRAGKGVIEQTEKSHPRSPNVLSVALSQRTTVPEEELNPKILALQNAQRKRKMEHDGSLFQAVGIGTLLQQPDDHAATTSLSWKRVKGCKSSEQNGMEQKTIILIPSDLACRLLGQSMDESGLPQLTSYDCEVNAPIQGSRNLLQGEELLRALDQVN

B1: Promyelocytic leukemia zinc finger protein (PLZF) (protein, UniProt Q05516 1-673)
chain: MDLTKMGMIQLQNPSHPTGLLCKANQMRLAGTLCDVVIMVDSQEFHAHRTVLACTSKMFEILFHRNSQHYTLDFLSPKTFQQILEYAYTATLQAKAEDLDDLLYAAEILEIEYLEEQCLKMLETIQASDDNDTEATMADGGAEEEEDRKARYLKNIFISKHSSEESGYASVAGQSLPGPMVDQSPSVSTSFGLSAMSPTKAAVDSLMTIGQSLLQGTLQPPAGPEEPTLAGGGRHPGVAEVKTEMMQVDEVPSQDSPGAAESSISGGMGDKVEERGKEGPGTPTRSSVITSARELHYGREESAEQVPPPAEAGQAPTGRPEHPAPPPEKHLGIYSVLPNHKADAVLSMPSSVTSGLHVQPALAVSMDFSTYGGLLPQGFIQRELFSKLGELAVGMKSESRTIGEQCSVCGVELPDNEAVEQHRKLHSGMKTYGCELCGKRFLDSLRLRMHLLAHSAGAKAFVCDQCGAQFSKEDALETHRQTHTGTDMAVFCLLCGKRFQAQSALQQHMEVHAGVRSYICSECNRTFPSHTALKRHLRSHTGDHPYECEFCGSCFRDESTLKSHKRIHTGEKPYECNGCGKKFSLKHQLETHYRVHTGEKPFECKLCHQRSRDYSAMIKHLRTHNGASPYQCTICTEYCPSLSSMQKHMKGHKPEEIPPDWRIEKTYLYLCYV

What was measured:
[1] = biological target: Kelch-like ECH-associated protein 1 (Keap1) (human (endogenous in HPMECs)) (UniProt Q14145); experiment: co-IP; HPMEC lysate in IP lysis buffer; PLZF and Keap1 antibodies on protein A/G Sepharose, incubated overnight at 4°C; beads washed three times with lysis buffer; immunoblot
[2] = biological target: Kelch-like ECH-associated protein 1 (Keap1) (human (endogenous in HPMECs)) (UniProt Q14145); experiment: as above; remark: listed apart in the source

binding [1]	binding [2]	Molecule
binds	–	Hypoxia-inducible factor-1α (HIF-1α) (from UniProt Q16665 1-826)
–	binds	B1
